Results deposited as PubChem BioAssay AID504793 (Drosophila RNAi Screening Center, 2011).

Purpose: 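Genes required for cells to halt at G2/M after double-strand DNA breaks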 (primary screen)
System: Drosophila S2R+ cells
Reagents: long dsRNA against Drosophila genes, about 0.25 µg dsRNA per well
Time to read-out: 4 days of dsRNA, then 4 hours of drug before read-out
Treatment: doxorubicin 0.5 µM for 4 hours to cause double-strand breaks, in cells also given a low, harmless dose of dsRNA against nbs to sensitise the assay
Measurement: 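Per-well count of mitotic cells stained for phospho-histone H3 after doxorubicin exposure, used as mitotic index; counts are raw and not normalised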
Scale: mitotic cells: higher = more cells in mitosis, weaker G2 arrest
Active means: 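Genes are called active only when high mitotic counts were reproduced with independent dsRNAs and mitosis was checked for delay without damage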
Calls: active = confirmed in follow-up tests; inactive = not confirmed
The screen tested about 23,000 reagents; this is an unselected part of those with a known target gene and a result. Over the whole deposit, 62 (0.27%) were called active. 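Calls come from follow-up tests whose scores are not deposited, so confirmed genes may have low counts here; counts are not normalised per plate.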 The raw values are shown without normalisation. A plus sign joins genes that one reagent is predicted to hit. No sequences are given here.

gene knocked down | amplicon | mitotic cells, replicate 1 | Outcome
Zmynd10 | DRSC09826 | 10 | inactive
Zmynd10 | DRSC28996 | 6 | inactive
CG13137 | DRSC02234 | 5 | inactive
CG17344 | DRSC02607 | 6 | inactive
l(3)72Dr | DRSC10478 | 3 | inactive
CG32816 | DRSC17337 | 5 | inactive
CG4101 | DRSC10400 | 3 | inactive
Cpr30B | DRSC02728 | 10 | inactive
Cpr30B | DRSC25204 | 2 | inactive
hpRNA:CR18854 + IP3K1 | DRSC02218 | 1 | inactive
CG10747 | DRSC02104 | 8 | inactive
Nup35 | DRSC19999 | 1 | inactive
Vps11 | DRSC11909 | 5 | inactive
Vps11 | DRSC21579 | 9 | inactive
CG15347 | DRSC18031 | 11 | inactive
Atf-2 | DRSC04130 | 4 | inactive
Atf-2 | DRSC04413 | 5 | inactive
CG12547 | DRSC07759 | 6 | inactive
dany | DRSC04141 | 5 | inactive
Asator | DRSC17136 | 8 | inactive
PSMG1 | DRSC12297 | 5 | inactive
PSMG1 | DRSC28532 | 4 | inactive
CG32726 | DRSC17521 | 9 | inactive
Hsp83 | DRSC08664 | 5 | inactive
Hsp83 | DRSC25052 | 6 | inactive
CG13895 | DRSC08365 | 15 | inactive
Su(var)2-HP2 | DRSC06204 | 7 | inactive
Su(var)2-HP2 | DRSC29542 | 3 | inactive
GstT2 | DRSC06244 | 8 | inactive
Pgant2 | DRSC00587 | 5 | inactive
CG31815 | DRSC01548 | 8 | inactive
CG31815 | DRSC29263 | 5 | inactive
Ge-1 | DRSC02938 | 5 | inactive
Ge-1 | DRSC28827 | 8 | inactive
CG6674 | DRSC10692 | 5 | inactive
alpha-Man-Ic | DRSC21674 | 5 | inactive
alpha-Man-Ic | DRSC27509 | 4 | inactive
srw | DRSC08201 | 8 | inactive
bsh | DRSC03498 | 7 | inactive
bsh | DRSC25413 | 6 | inactive
pav | DRSC08730 | 63 | inactive
pav | DRSC25088 | 3 | inactive
bdwf | DRSC15532 | 1 | inactive
Vmat + CG13330 | DRSC06365 | 9 | inactive
Vmat + CG13330 | DRSC28600 | 7 | inactive
Cdk5alpha | DRSC03290 | 8 | inactive
Cdk5alpha | DRSC23301 | 6 | inactive
CG13728 | DRSC10056 | 4 | inactive
Cpr65Ec | DRSC11025 | 14 | inactive
Cpr65Ec | DRSC24191 | 6 | inactive
Cdc50 | DRSC20224 | 15 | inactive
CG30103 | DRSC06894 | 7 | inactive
CG30103 | DRSC29743 | 5 | inactive
CG16749 | DRSC15146 | 6 | inactive
CG16749 | DRSC25605 | 4 | inactive
alpha4GT2 | DRSC15905 | 20 | inactive
Tmem63 | DRSC06063 | 7 | inactive
Tmem63 | DRSC27402 | 4 | inactive
VhaAC45 | DRSC07058 | 5 | inactive
Rae1 | DRSC04577 | 5 | inactive
Nepl10 | DRSC07212 | 6 | inactive
CG3437 | DRSC10366 | 4 | inactive
CG3437 | DRSC24768 | 13 | inactive
CG14269 | DRSC17912 | 3 | inactive
TTLL4B | DRSC00636 | 7 | inactive
TTLL4B | DRSC28854 | 2 | inactive
Acf | DRSC14101 | 5 | inactive
Acf | DRSC29797 | 11 | inactive
fal | DRSC11087 | 8 | inactive
Rsf1 | DRSC03423 | 4 | inactive
Rsf1 | DRSC21953 | 11 | inactive
Rsf1 | DRSC27444 | 3 | inactive
CG1441 | DRSC06448 | 7 | inactive
CG1441 | DRSC27028 | 4 | inactive
CG14983 | DRSC08441 | 2 | inactive
CG14983 | DRSC26428 | 5 | inactive
beta-PheRS | DRSC15859 | 6 | inactive
beta-PheRS | DRSC26218 | 3 | inactive
AANATL2 | DRSC03227 | 2 | inactive
AANATL2 | DRSC26485 | 1 | inactive
CG5937 | DRSC18392 | 11 | inactive
CG5937 | DRSC26696 | 6 | inactive
Tpl94D | DRSC13593 | 24 | inactive
bft (retired record) | DRSC21354 | 12 | inactive
bft (retired record) | DRSC29259 | 2 | inactive
CG14130 | DRSC10134 | 3 | inactive
CG15269 | DRSC01942 | 8 | inactive
CG15269 | DRSC24737 | 10 | inactive
Crz | DRSC16615 | 3 | inactive
Nf-YB | DRSC02057 | 6 | inactive
CG12213 | DRSC14478 | 19 | inactive
CG12213 | DRSC22109 | 13 | inactive
CG12213 | DRSC25474 | 5 | inactive
CR18166 | DRSC17260 | 1 | inactive
CR18166 | DRSC18147 | 7 | inactive
CR18166 | DRSC27717 | 5 | inactive
Spn31A | DRSC02780 | 2 | inactive
Spn31A | DRSC29198 | 8 | inactive
CG5681 | DRSC02876 | 5 | inactive
CG5681 | DRSC24022 | 3 | inactive
CG15525 | DRSC15062 | 7 | inactive
CG15525 | DRSC27631 | 3 | inactive
CG33080 | DRSC18080 | 7 | inactive
CG33080 | DRSC18081 | 14 | inactive
CG33080 | DRSC18285 | 8 | inactive
CG33080 | DRSC25974 | 3 | inactive
Mybbp1A | DRSC18788 | 7 | inactive
CG12426 | DRSC14516 | 14 | inactive
cni | DRSC03512 | 3 | inactive
Ski6 | DRSC02491 | – | inactive

17 successive entries from above, for reference:
gene knocked down | amplicon | mitotic cells, replicate 1 | Outcome
CG30103 | DRSC29743 | 5 | inactive
CG16749 | DRSC15146 | 6 | inactive
CG16749 | DRSC25605 | 4 | inactive
alpha4GT2 | DRSC15905 | 20 | inactive
Tmem63 | DRSC06063 | 7 | inactive
Tmem63 | DRSC27402 | 4 | inactive
VhaAC45 | DRSC07058 | 5 | inactive
Rae1 | DRSC04577 | 5 | inactive
Nepl10 | DRSC07212 | 6 | inactive
CG3437 | DRSC10366 | 4 | inactive
CG3437 | DRSC24768 | 13 | inactive
CG14269 | DRSC17912 | 3 | inactive
TTLL4B | DRSC00636 | 7 | inactive
TTLL4B | DRSC28854 | 2 | inactive
Acf | DRSC14101 | 5 | inactive
Acf | DRSC29797 | 11 | inactive
fal | DRSC11087 | 8 | inactive
